PubChem BioAssay AID504804 – Drosophila RNAi Screening Center | 2011
The screen tested about 19,000 reagents; below is a random part of those with a known target gene and a result. Over the whole deposit, 47 (0.25%) were called active. 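Signals are raw, not normalised; exact z-scores behind calls not deposited; actives needed confirmation, so some wells reaching 2 SD are inactive.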 A plus sign joins genes that one reagent is predicted to hit.

Aim: 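Knock-downs shielding fly cells from apoptosis caused by DNA damage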 (primary screen)
Cells: Drosophila Kc cells
Knock-down reagent: long dsRNA against Drosophila genes, 0.5 µg dsRNA per well
Timing: 96 h (48 h knock-down, then 48 h drug)
Challenge: doxorubicin 5 µg/ml for 48 h, added 48 h after dsRNA
Measured: 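Luminescent ATP counts per replicate, not normalised, reflecting viable cells after 48 h dsRNA knock-down followed by 48 h of 5 µg/ml doxorubicin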
Direction: raw ATP luminescence: higher = more viable cells, protection from doxorubicin
Active means: 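Active when both duplicate wells lie at least 2 SD above the plate mean and protection is confirmed by rescreening and independent dsRNAs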

no.	gene	amplicon	raw ATP luminescence, replicate 1	raw ATP luminescence, replicate 2	Call
1	hth	DRSC16967	57957	50240	inactive
2	St2	DRSC15142	60267	56610	inactive
3	CG8997	DRSC01900	70807	75140	inactive
4	GlcAT-S	DRSC02731	1.01e5	60243	inactive
5	homer	DRSC03547	96080	83663	inactive
6	h-cup	DRSC15973	57643	24410	inactive
7	CG32706 + CG6999	DRSC18412	3.44e5	2.85e5	inactive
8	mtDNA-helicase	DRSC02912	20757	37353	inactive
9	fun (retired record)	DRSC12300	62643	24410	inactive
10	CG14676	DRSC12262	58213	55067	inactive
11	CG6244	DRSC10609	54433	47470	inactive
12	Art9	DRSC16584	66710	67830	inactive
13	Pop5	DRSC10074	33907	24977	inactive
14	PGRP-LC	DRSC08980	1.82e5	1.61e5	inactive
15	PGRP-LC	DRSC10416	71913	74400	inactive
16	PGRP-LC	DRSC10417	75737	58507	inactive
17	RecQ4	DRSC11265	68880	80280	inactive
18	Fad2	DRSC11165	70183	61577	inactive
19	tefu	DRSC16060	79120	56610	inactive
20	CG14551	DRSC14894	74640	64840	inactive
21	Gpdh2	DRSC04346	42173	50127	inactive
22	Cad99C	DRSC15050	68100	38010	inactive
23	ex	DRSC00817	91660	66710	inactive
24	twr	DRSC12491	75240	64837	inactive
25	Rh4 + sina	DRSC11396	24223	25987	inactive
26	CG33307	DRSC01349	2.33e5	1.71e5	inactive
27	Dlip1	DRSC18460	2.98e5	2.74e5	inactive
28	Regnase-1	DRSC14278	58553	60997	inactive
29	CG7432	DRSC16243	48950	53420	inactive
30	CG6276	DRSC16007	43857	27183	inactive
31	Pfdn5	DRSC16183	42517	53030	inactive
32	Rpn7	DRSC16841	35603	34810	inactive
33	syd	DRSC10963	28190	33120	inactive
34	AP-1-2beta	DRSC19336	2.64e5	2.32e5	inactive
